PubChem BioAssay AID1508597, Cure First, 2020
This is a random part of the about 2,100 reagents, under one of the conditions tested. 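Calls flag viability under 80% in either arm, not effects specific to rucaparib; the reference for percent is not stated.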 Entries without a mark were called inactive. Some reagents were tested in more than one well and are listed for each. Reagent sequences are not shown. Not given: the 100% reference.

Assay: 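Knock-downs altering ovarian cancer cell survival with or without PARP inhibitor rucaparib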 (primary screen)
Cell system: human ovarian carcinoma lines grown from tumours: OCI-P5x (papillary serous) and OCI-C5x (clear cell)
Knock-down reagent: siRNA pool against human genes, 1.25 pmol siRNA per well
Time to read-out: 72 h or 96 h, depending on the cell culture
Treatment: rucaparib 20 µM (about IC30) or vehicle, present until read-out
Rucaparib or vehicle: Rucaparib
Cell line: OCI-P5x (serous)
Measured: 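Luminescent ATP-based viability assay read 72 or 96 h after transfection, depending on culture, given as normalised percent viability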
Scale: viability, normalised: higher = more viable cells remaining
Call rule: 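Active when normalised viability falls below 80 percent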
Calls: active = viability under 80%; inactive = viability 80% or more

The first 3 entries as a preview:
Gene | technical replicate | viability, normalised (%)
SMARCC2 | 1 | 45.4 (active)
SMARCC2 | 2 | 51.9 (active)
SMARCC2 | 3 | 49 (active)

The listing, repeating the preview:
Gene | technical replicate | viability, normalised (%)
SMARCC2 | 1 | 45.4 (active)
SMARCC2 | 2 | 51.9 (active)
SMARCC2 | 3 | 49 (active)
PDE6H | 1 | 73 (active)
PDE6H | 2 | 85.4
PDE6H | 3 | 67.6 (active)
PDPK1 | 1 | 112
PDPK1 | 2 | 115
PDPK1 | 3 | 77.6 (active)
RAG2 | 1 | 38.3 (active)
RAG2 | 2 | 46.2 (active)
RAG2 | 3 | 50.5 (active)
MYSM1 | 1 | 50.5 (active)
MYSM1 | 2 | 62.9 (active)
MYSM1 | 3 | 69.7 (active)
PIK3CD | 1 | 63.1 (active)
PIK3CD | 2 | 51.9 (active)
PIK3CD | 3 | 56.5 (active)
UCK1 | 1 | 78.6 (active)
UCK1 | 2 | 69.1 (active)
UCK1 | 3 | 80.3
PRKCI | 1 | 59.5 (active)
PRKCI | 1 | 108
PRKCI | 2 | 65.5 (active)
PRKCI | 2 | 94
PRKCI | 3 | 60.1 (active)
PRKCI | 3 | 90.9
ARID1B | 1 | 83.9
ARID1B | 2 | 80.4
ARID1B | 3 | 70.9 (active)
SLC1A3 | 1 | 48.2 (active)
SLC1A3 | 2 | 50.2 (active)
SLC1A3 | 3 | 57.7 (active)
JMJD1C | 1 | 76.3 (active)
JMJD1C | 2 | 75.3 (active)
JMJD1C | 3 | 84.8
WNK2 | 1 | 69.7 (active)
WNK2 | 2 | 76.5 (active)
WNK2 | 3 | 77 (active)
